Source: patent publication US6790645B2, “Oxidation of a cyclohexanone derivative using a brevibacterium cyclohexanone monooxygenase” (E. I. du Pont de Nemours and Company, priority 1999, dated 2004)
At least one structure is not confirmed: it was looked up by name or label, or the drawing left a doubt.

System: Brevibacterium sp. HCU
Test: Growth of Brevibacterium sp. HCU on substrates added to S12 medium as sole source of carbon
Type: cell-based
Conditions: substrate at 100 ppm, symbols +++, − not defined

## CC(C)O [2-Propanol]
  growth on substrate as sole source of carbon: −

## CC(O)C(=O)O (centres unmarked) [Lactate]
  growth on substrate as sole source of carbon: +++
